Results from publication PMC11090844.
These are yes or no findings as the source states them, for the method shown. Binding seen in cells or lysates may run through a third protein. Some binding calls cover weakened binding; strength is not graded here. For some of these results: Where a sequence is shown, tags or fusion partners need not be part of it. Values belong to the molecule of their own block, whether it stands above or below them.

Amino acid sequences for entries named in this document (tags omitted). A change or cut given only in a name is not applied to a line headed by its entry.
UniProt P46736-2: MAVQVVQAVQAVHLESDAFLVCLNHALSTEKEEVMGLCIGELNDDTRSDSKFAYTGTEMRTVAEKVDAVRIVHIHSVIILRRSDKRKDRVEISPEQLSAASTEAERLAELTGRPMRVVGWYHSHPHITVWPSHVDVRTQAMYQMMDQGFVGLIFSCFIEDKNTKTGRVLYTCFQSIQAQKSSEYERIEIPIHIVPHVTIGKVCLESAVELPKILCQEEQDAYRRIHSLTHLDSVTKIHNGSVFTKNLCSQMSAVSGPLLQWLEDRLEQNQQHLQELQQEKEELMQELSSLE

Key:
[1] = target: T1, Flag-ZEB1 (zinc finger E-box binding homeobox 1) (UniProt P37275); experiment: co-IP; MDA-MB-231 cells transfected with Flag-ZEB1 or Myc-BRCC3 for 48 h, treated with MG132 (20 uM); NP40 lysate; IP with anti-Flag or anti-Myc overnight at 4°C, protein A+G agarose; western blot with anti-ZEB1 and anti-BRCC3
T1 sequence: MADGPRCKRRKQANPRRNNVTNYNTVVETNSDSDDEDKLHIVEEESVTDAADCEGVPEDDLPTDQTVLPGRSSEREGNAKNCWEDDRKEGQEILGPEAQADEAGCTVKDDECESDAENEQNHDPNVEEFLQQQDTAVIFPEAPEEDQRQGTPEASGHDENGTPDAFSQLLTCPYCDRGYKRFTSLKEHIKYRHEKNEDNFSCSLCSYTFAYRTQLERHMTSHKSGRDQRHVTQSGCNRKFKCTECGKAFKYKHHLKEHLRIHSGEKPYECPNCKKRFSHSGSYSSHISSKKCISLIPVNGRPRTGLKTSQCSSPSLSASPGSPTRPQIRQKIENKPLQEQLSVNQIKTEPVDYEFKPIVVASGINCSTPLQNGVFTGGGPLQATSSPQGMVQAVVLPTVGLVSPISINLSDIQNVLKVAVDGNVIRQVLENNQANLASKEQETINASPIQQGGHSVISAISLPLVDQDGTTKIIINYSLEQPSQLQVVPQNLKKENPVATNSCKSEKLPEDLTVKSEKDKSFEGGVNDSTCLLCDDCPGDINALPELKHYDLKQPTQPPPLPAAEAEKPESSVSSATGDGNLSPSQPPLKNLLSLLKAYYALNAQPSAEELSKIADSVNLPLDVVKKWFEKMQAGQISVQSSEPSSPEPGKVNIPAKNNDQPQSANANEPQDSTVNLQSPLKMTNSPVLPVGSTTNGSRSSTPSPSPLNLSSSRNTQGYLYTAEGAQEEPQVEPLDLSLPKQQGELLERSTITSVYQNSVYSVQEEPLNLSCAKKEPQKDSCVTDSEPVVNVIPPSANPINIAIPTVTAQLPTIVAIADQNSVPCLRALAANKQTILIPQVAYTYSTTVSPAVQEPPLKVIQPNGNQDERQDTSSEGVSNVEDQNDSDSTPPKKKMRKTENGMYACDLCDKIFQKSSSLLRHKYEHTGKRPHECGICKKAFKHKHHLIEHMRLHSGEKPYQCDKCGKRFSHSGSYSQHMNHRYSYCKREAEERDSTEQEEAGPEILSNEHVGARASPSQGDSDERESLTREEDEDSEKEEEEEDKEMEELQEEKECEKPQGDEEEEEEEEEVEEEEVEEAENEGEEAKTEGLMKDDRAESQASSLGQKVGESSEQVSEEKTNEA

[2] = target: T2, zinc finger E-box binding homeobox 1 (ZEB1), endogenous (human (endogenous in MDA-MB-231)) (UniProt P37275); experiment: co-IP; endogenous proteins in MDA-MB-231 lysate; anti-ZEB1 or anti-BRCC3 antibody on Protein A/G agarose, overnight at 4°C; IgG as negative control; western blot with anti-ZEB1 and anti-BRCC3
T2 sequence: T1 sequence

[3] = target: Myc-BRCC3 (UniProt P46736); experiment: co-IP; MDA-MB-231 cells transfected with Flag-ZEB1 or Myc-BRCC3 for 48 h, treated with MG132 (20 uM); NP40 lysate; IP with anti-Flag or anti-Myc overnight at 4°C, protein A+G agarose; western blot with anti-ZEB1 and anti-BRCC3
[4] = target: breast cancer susceptibility gene 1/2-containing complex subunit 3 (BRCC3), endogenous (human (endogenous in MDA-MB-231)) (UniProt P46736); experiment: co-IP; endogenous proteins in MDA-MB-231 lysate; anti-ZEB1 or anti-BRCC3 antibody on Protein A/G agarose, overnight at 4°C; IgG as negative control; western blot with anti-ZEB1 and anti-BRCC3

binding [1]: binds | binding [2]: binds
Molecule: breast cancer susceptibility gene 1/2-containing complex subunit 3 (BRCC3), endogenous (from UniProt P46736-2 1-291) (enzyme)

binding [3]: binds | binding [4]: binds
B1: zinc finger E-box binding homeobox 1 (ZEB1), endogenous (protein, UniProt P37275 1-1124)
chain: T1 sequence
